Values quoted from earlier work as cited in patent US7553858B2, “Combination of flupirtine and tramadol” (priority 2003, dated 2009).
At least one structure is not confirmed: it was looked up by name or label, or the drawing left a doubt.

Tested on: specific [^3H]flunitrazepam binding
Conditions: up to 10 μmol/l; cited from earlier work

## CCOC(=O)Nc1ccc(NCc2ccc(F)cc2)nc1N [Flupirtine]
  affinity for specific [^3H]flunitrazepam binding: no affinity
